Results taken from PMC12589134.
These are yes or no findings as the source states them, for the method shown. Binding seen in cells or lysates may run through a third protein. Some entries that bind do so weakly or less than the wild type. Tags and fused reporters may be left off the sequences shown.

Biological target: T1, mouse Jak2-R1063H-Flag (mouse) (UniProt Q62120)
T1 sequence: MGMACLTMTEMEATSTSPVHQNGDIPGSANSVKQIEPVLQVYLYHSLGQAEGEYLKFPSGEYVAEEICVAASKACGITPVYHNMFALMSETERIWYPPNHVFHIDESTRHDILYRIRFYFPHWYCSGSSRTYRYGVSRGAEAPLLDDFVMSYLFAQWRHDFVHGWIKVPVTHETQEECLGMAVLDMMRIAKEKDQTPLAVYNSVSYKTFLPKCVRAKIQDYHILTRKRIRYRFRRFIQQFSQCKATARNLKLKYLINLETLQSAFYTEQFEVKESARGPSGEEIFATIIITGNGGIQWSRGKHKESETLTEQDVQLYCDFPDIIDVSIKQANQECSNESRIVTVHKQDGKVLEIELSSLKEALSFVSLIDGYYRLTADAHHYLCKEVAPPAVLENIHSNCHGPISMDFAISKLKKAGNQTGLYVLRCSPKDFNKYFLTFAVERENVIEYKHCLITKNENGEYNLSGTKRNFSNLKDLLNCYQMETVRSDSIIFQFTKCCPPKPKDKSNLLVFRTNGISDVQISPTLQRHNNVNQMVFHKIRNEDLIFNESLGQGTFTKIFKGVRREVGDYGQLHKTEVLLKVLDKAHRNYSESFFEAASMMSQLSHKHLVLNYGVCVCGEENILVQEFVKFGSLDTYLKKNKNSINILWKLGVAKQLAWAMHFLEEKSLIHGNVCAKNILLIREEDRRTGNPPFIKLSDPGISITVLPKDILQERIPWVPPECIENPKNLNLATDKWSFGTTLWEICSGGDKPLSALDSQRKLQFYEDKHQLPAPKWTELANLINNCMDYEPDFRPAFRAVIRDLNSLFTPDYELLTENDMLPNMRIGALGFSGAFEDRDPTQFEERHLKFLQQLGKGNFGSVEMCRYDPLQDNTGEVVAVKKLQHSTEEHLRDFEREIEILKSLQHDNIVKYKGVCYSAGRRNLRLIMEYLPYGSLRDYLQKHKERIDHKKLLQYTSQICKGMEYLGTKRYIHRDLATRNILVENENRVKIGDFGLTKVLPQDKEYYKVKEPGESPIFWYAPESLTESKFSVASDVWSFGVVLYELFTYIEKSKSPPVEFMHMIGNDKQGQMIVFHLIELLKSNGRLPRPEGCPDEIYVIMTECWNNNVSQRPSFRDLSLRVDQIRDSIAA
Assay: co-IP; unstimulated HEK293 cells stably expressing the tagged receptor, Flag-tagged Jak2/JAK2 transiently expressed; co-immunoprecipitation with Flag/V5 antibody, immunoblot, band intensity quantified by ImageJ

B1: mouse V5-tagged Epor (receptor, UniProt P14753 25-507)
chain: APSPSLPDPKFESKAALLASRGSEELLCFTQRLEDLVCFWEEAASSGMDFNYSFSYQLEGESRKSCSLHQAPTVRGSVRFWCSLPTADTSSFVPLELQVTEASGSPRYHRIIHINEVVLLDAPAGLLARRAEEGSHVVLRWLPPPGAPMTTHIRYEVDVSAGNRAGGTQRVEVLEGRTECVLSNLRGGTRYTFAVRARMAEPSFSGFWSAWSEPASLLTASDLDPLILTLSLILVLISLLLTVLALLSHRRTLQQKIWPGIPSPESEFEGLFTTHKGNFQLWLLQRDGCLWWSPGSSFPEDPPAHLEVLSEPRWAVTQAGDPGADDEGPLLEPVGSEHAQDTYLVLDKWLLPRTPCSENLSGPGGSVDPVTMDEASETSSCPSDLASKPRPEGTSPSSFEYTILDPSSQLLCPRALPPELPPTPPHLKYLYLVVSDSGISTDYSSGGSQGVHGDSSDGPYSHPYENSLVPDSEPLHPGYVACS
- binding: binds
